Several values for one entry are separate records, joined by “and”; a condition that tells them apart may be missing. Equal values may be shown once. Some of the results follow. For some of these results: The exact form of the protein is not confirmed.
Tests used:
Test in all cases: protein microarray (ProtoArray v5.0), streptavidin-Alexa Fluor 647
Details in all cases: 3'-biotin; 20 mM Tris (pH 7.5), 5 mM MgCl2, 100 mM KCl, 0.1% Tween-20, A/T-rich and random oligonucleotide blockers; temperature not stated; high values mean tight binding
[1] = system: BET1 (human)
[2] = system: BHMT (human)
[3] = system: BHMT2 (human)
[4] = system: BID (human)
[5] = biological target: T1, BIN1 (UniProt O00499)
T1 sequence: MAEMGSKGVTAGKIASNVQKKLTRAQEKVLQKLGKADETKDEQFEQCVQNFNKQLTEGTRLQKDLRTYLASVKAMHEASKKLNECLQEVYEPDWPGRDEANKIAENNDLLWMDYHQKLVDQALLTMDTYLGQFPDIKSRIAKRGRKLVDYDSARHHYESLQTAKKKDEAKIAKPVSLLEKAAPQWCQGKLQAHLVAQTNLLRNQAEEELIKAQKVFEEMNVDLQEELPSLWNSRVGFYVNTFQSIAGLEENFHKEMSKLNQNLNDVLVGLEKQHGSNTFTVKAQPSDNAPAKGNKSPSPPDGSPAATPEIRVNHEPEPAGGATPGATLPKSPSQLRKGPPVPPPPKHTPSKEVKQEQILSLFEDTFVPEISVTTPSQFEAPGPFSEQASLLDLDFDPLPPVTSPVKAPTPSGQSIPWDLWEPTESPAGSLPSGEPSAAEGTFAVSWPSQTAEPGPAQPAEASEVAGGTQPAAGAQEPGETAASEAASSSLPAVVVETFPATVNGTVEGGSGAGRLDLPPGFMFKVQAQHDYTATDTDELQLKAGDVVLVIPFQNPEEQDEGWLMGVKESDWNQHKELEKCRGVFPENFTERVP

[6] = system: BIRC5 (human)
[7] = system: BIRC7 (human)
[8] = biological target: T2, BIRC8 (UniProt Q96P09)
T2 sequence: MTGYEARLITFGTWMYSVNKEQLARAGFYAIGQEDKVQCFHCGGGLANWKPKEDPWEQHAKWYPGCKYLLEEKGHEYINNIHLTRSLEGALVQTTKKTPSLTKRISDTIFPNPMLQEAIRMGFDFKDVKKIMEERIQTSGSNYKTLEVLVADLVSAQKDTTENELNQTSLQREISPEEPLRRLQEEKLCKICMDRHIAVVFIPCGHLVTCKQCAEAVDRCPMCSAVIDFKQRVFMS

[9] = system: BLCAP (human)
[10] = system: BLK (human)

Q: Which results are given for “GGGAGGCTGAGGCAGG [G4-1 biotinylated (PQS2)]”?
A: binding signal [1]: -0.284 z-score; binding signal [2]: -0.351 z-score; binding signal [3]: -0.317 z-score; binding signal [4]: -0.354 z-score and -0.33 z-score and -0.355 z-score; binding signal [5]: -0.337 z-score and -0.341 z-score; binding signal [6]: -0.356 z-score; binding signal [7]: -0.337 z-score; binding signal [8]: -0.37 z-score; binding signal [9]: -0.297 z-score; binding signal [10]: -0.314 z-score
